Paper PMC3084826
Results are given in words; binding and its absence hold for the method and conditions named. Binding seen in cells or lysates may run through a third protein. Some binding calls cover weakened binding; strength is not graded here.

Sequences of proteins named here, by UniProt entry; tags and fusion partners are left off.
UniProt Q08211: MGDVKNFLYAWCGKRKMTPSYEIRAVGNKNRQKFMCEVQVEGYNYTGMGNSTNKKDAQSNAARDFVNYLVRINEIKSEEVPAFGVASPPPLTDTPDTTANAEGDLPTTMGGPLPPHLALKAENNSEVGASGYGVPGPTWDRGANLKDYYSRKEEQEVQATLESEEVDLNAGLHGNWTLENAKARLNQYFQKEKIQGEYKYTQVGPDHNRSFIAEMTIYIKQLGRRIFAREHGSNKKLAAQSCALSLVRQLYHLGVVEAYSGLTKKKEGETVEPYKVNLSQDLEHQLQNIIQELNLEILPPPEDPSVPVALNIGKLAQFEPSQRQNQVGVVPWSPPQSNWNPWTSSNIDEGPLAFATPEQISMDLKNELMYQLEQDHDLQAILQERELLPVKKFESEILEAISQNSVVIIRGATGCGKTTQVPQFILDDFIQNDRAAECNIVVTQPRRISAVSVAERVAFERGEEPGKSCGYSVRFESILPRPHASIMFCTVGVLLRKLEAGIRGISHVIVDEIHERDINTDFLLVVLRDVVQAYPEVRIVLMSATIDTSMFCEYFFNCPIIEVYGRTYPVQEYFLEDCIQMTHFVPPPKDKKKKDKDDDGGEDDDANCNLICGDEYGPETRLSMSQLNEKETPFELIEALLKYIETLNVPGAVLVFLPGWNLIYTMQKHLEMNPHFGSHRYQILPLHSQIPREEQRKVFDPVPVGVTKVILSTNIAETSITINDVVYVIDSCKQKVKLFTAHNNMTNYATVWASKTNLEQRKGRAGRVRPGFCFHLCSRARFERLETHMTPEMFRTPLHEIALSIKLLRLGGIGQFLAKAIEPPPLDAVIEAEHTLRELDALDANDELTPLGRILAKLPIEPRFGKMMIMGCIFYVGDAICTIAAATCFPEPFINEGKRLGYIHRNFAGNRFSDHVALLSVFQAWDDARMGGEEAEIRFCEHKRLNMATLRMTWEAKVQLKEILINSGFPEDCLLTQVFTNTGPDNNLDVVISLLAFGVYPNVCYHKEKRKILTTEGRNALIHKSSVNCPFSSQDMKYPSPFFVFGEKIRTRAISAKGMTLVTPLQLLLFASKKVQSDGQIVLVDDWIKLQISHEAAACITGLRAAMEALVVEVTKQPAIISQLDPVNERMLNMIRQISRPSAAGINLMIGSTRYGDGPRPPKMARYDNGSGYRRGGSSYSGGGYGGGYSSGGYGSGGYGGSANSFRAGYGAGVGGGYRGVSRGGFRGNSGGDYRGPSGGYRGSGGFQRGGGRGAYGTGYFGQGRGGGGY

Biological target: RNA Helicase A (human (endogenous in VCaP)) (UniProt Q08211)
Test: co-IP; VCaP cells, with or without 10 µM YK-4-279 for 24 h; immunoprecipitation as previously described (ref. 11); which protein was precipitated is not told

B1: ERG (protein, UniProt P11308 1-479)
chain: MASTIKEALSVVSEDQSLFECAYGTPHLAKTEMTASSSSDYGQTSKMSPRVPQQDWLSQPPARVTIKMECNPSQVNGSRNSPDECSVAKGGKMVGSPDTVGMNYGSYMEEKHMPPPNMTTNERRVIVPADPTLWSTDHVRQWLEWAVKEYGLPDVNILLFQNIDGKELCKMTKDDFQRLTPSYNADILLSHLHYLRETPLPHLTSDDVDKALQNSPRLMHARNTGGAAFIFPNTSVYPEATQRITTRPDLPYEPPRRSAWTGHGHPTPQSKAAQPSPSTVPKTEDQRPQLDPYQILGPTSSRLANPGSGQIQLWQFLLELLSDSSNSSCITWEGTNGEFKMTDPDEVARRWGERKSKPNMNYDKLSRALRYYYDKNIMTKVHGKRYAYKFDFHGIAQALQPHPPESSLYKYPSDLPYMGSYHAHPQKMNFVAPHPPALPVTSSSFFAAPNPYWNSPTGGIYPNTRLPTSHMPSHLGTYY
**Q.** For B1, which binding is on record?
**A.** Its binding is “binds”.
